# Data taken from the supplement of paper PMC10338343.
# ± gives the standard deviation. Some of the results follow. Many entries were measured with a wide error.
# Tested on: EfPiwi piRISC loaded with L1MC piRNA (26 nt)
# Experiment: pre-steady-state target cleavage rate (min^-1); guide: L1MC piRNA 5'p-UAACUAAAUACUAUGCAAGCUGUAGG; MIWI and MILI are mouse PIWI proteins and EfPiwi is from a freshwater sponge; tags in brackets are library labels; higher = faster piRNA-guided slicing of the target
# Details: auxiliary factor: 500 nM Ephydatia muelleri Gtsf1
# Experimental: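 Cleave-'n-Seq: a library of target RNAs (target site in constant flanks) at […] was incubated with 1 nM active freshwater sponge Ephydatia fluviatilis Piwi piRISC (synthetic 5'-monophosphorylated piRNA guide) with or without 500 nM EmGtsf1 at 33 °C for 1 min to 16 h. Uncleaved targets were sequenced and the pooled three trials fitted to a burst-and-steady-state model to give the pre-steady-state cleavage rate (min^-1). Sequence is the target site only. Fits with R² ≤ 0 are excluded.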
row,Sequence,pre-steady-state target cleavage rate
1,UCCUGGAUGAGCUUGCAUAGUAAAUAGAAA,0.000801 ± 0.0068
2,UCCUGGUACAGCUUGCAUAGUAUAUAGAAA,0.002 ± 0.0032
3,UCCUGGAACAGCUUCGUUAGUAUUUACAAA,0.000286 ± 0.012
4,UCCUCCUACAGCGUGCAUAGUAUUUAGUUA,0.1 ± 0.026
5,UCCUGCUACAGCUUCCAUAGUAUUUAGUAA,0.00255 ± 0.0016
6,UCCUCGAUCAGCUUGCAUAGUAUUUAGAAA,0.00579 ± 0.0018
7,UCCUGCUACAGCUUGCAUAGUAUUUGAGUUA,0.0068 ± 0.0022
8,UCCUGGAUGUCCUUGCAAAGUUUUUAGUUA,0.000263 ± 0.011
9,UCCUGGAUCAGCUUCGUUAGUAUUUAGAAA,0.00104 ± 0.0077
10,UCCUGCUACAGCUUGCAUAGUAUCUAGUUA,0.00723 ± 0.0019
11,UCCUGCUACAGCUUGCAUAGUAAAAACAAA,0.00179 ± 0.0029
12,UCCUGGAUGUGGUUGCAUAGUAUUUAGAUA,0.00221 ± 0.0048
13,UCCUGGAUGUGCUUGCAUAGUAAAUAGUAA,0.000357 ± 0.011
14,UCCUGCUUGAGCUUGCAUAGUAUUUAGUUA,0.00861 ± 0.0024
15,UCCUCCUACAGCUCUGCAUAGUAUUUAGUUA,0.0445 ± 0.014
16,UCCUCCUACAGCUUGCAUAGAAUAUAGUUA,0.00306 ± 0.0031
17,UCCUGGAACAGCUUGCAAUCAUAAAUCAAA [g14:g23:cont:t1A],0.000353 ± 0.011
18,UCCUGGAUCAGCUUCCAAAGUAUUUAGUUA,0.00404 ± 0.0027
19,UCCUGGAUGUCCUUGCAUAGUAUUAAGUUA,0.00404 ± 0.0034
20,UCCUGCUACAGCUUGGAAAGUAUUUAGUUA,0.0208 ± 0.0042
21,UCCUGGAACAGCUUGCAAUCUAUUUAGUAA,0.00153 ± 0.0061
22,UCCUCCUACAGCUUGCAUUGUAUUUUGUUA,0.00442 ± 0.0027
23,UCCUGGAUCAGCUACCAUAGUAUUUAGUUA,0.00516 ± 0.0032
24,UCCUGGUACAGCUUGCAUAGUUAUUAGAAA,0.00121 ± 0.0027
25,UCCUGCUACAGCUUGCAUAGUAAAUAGAAA,0.00185 ± 0.0022

# Same assay, conditions: auxiliary factor: none (no Gtsf1)
row,Sequence,pre-steady-state target cleavage rate
1,UCCUGGAUGAGCUUGCAUAGUAAAUAGAAA,0.000436 ± 0.015
2,UCCUGGAUGUCGAUGCAUAGUAUAAUCAAA [g8:g17:cont:t1A],0.000175 ± 0.031
3,UCCUGCUACAGCUUCCAUAGUAUUUAGUAA,0.000235 ± 0.021
4,UCCUGCUACAGCUUGCAUAGUAUUUGAGUUA,0.00121 ± 0.0065
5,UCCUGGAUGUCCUUGCAAAGUUUUUAGUUA,0.000177 ± 0.042
6,UCCUGCUACAGCUUGCAUAGUAAAAACAAA,0.000294 ± 0.024
7,UCCUGGAUGUGGUUGCAUAGUAUUUAGAUA,0.000395 ± 0.038
8,UCCUCCUACAGCUUGCAUAGAAUAUAGUUA,0.000829 ± 0.0083
9,UCCUGGAACAGCUUGCAAUCAUAAAUCAAA [g14:g23:cont:t1A],0.00056 ± 0.02
10,UCCUGGAUCAGCUUCCAAAGUAUUUAGUUA,0.000179 ± 0.05
11,UCCUGCUACAGCUUGGAAAGUAUUUAGUUA,0.00225 ± 0.0038
12,UCCUGGAACAGCUUGCAAUCUAUUUAGUAA,0.000424 ± 0.017
13,UCCUCCUACAGCUUGCAUUGUAUUUUGUUA,0.000538 ± 0.013
14,UCCUGGAACAGCUUGCAUUGUAUUUAGUAA,0.00105 ± 0.01
15,UCCUGGAUCAGCUACCAUAGUAUUUAGUUA,0.000753 ± 0.0086
16,UCCUGCUACAGCUUGCAUAGUAAAUAGAAA,0.000342 ± 0.025
